In this data set the test system is HEK293T/16 cells. Nature of the data set: Western blot of protein expression and proteolysis. The format is cell-based, human. The settings on record: 72 hours post-transfection, 1 or 2 μg plasmid. The protocol: The lysates were collected and lysed on ice for 30 min. After pelleting cell debris, protein concentrations from overlying supernatants were measured in 96-well plates with BCA™ Protein Assay as recommended by the manufacturer. 30 μg of proteins were boiled in Laemmli sample buffer (Bio-Rad, Hercules, Calif.) with 2.5% 2-mercaptoethanol for 5 min at 95° C. before being separated by Criterion TGX 10% Tris/glylcine protein gel. Membranes were probed with 1/1000 rabbit anti-human caspase-9 polyclonal antibody followed by 1/10,000 HRP-conjugated goat anti-rabbit IgG F(ab′)2 secondary antibody (Bio-Rad). Protein bands were detected using Supersignal West Femto chemiluminescent substrate. To ensure equivalent sample loading, blots were stripped at 65° C. for 1 hour with Restore PLUS Western Blot Stripping Buffer before labeling with 1/10,000 rabbit anti-actin polyclonal antibody. Unless otherwise stated, all the reagents were purchased from Thermo Scientific.

Results on 1 molecule are retold here after patent publication US20150328292A1, “CASPASE POLYPEPTIDES HAVING MODIFIED ACTIVITY AND USES THEREOF” (BELLICUM PHARMACEUTICALS, INC., priority 2014, published 2015).

B1: N405Q: ΔCasp9 (res. 135-416) N405Q, SEQ ID NO: 26 (protein)
chain: GFGDVGALESLRGNADLAYILSMEPCGHCLIINNVNFCRESGLRTRTGSNIDCEKLRRRFSSLHFMVEVKGDLTAKKMVLALLELARQDHGALDCCVVVILSHGCQASHLQFPGAVYGTDGCPVSVEKIVNIFNGTSCPSLGGKPKLFFIQACGGEQKDHGFEVASTSPEDESPGSNPEPDATPFQEGLRTFDQLDAISSLPTPSDIFVSYSTFPGFVSWRDPKSGSWYVETLDDIFEQWAHSEDLQSLLLRVANAVSVKGIYKQMPGCFQFLRKKLFFKTS
As for B1, the protein expression level entry was “darker than the others”.
